# Measurements from publication PMC11664589 (Journal of the American Chemical Society, 2024).
# Where “and” joins values, the source holds several entries; their conditions need not be identical. Equal values may be shown once. For some assays here: Plain letter strings leave the end groups untold.
# Experiments:
# [1] = general procedure: Fmoc solid-phase peptide synthesis in flow; PEG resin; Rink amide, HMPB, photolinker or MeDbz linker; conditions: for isolated yield: overall
# [2] = general procedure: Fmoc solid-phase peptide synthesis in flow; NovaPEG Rink Amide; conditions: whole synthesis
# [3] = general procedure: Fmoc solid-phase peptide synthesis in flow; Rink amide + Photolinker on NovaPEG resin; conditions: whole synthesis
# [4] = general procedure: Fmoc solid-phase peptide synthesis in flow; MeDbz linker on NovaPEG resin; conditions: whole synthesis
# [5] = general procedure: Fmoc solid-phase peptide synthesis in flow; Photolinker on NovaPEG resin; conditions: whole synthesis, 214 nm, scale 24 µmol
# [6] = general procedure: Fmoc solid-phase peptide synthesis in flow; low loading resin (0.20 mmol/g); conditions: whole synthesis, UHPLC AUC at 214 nm; LCMS; run 1
# [7] = general procedure: Fmoc solid-phase peptide synthesis in flow; HMPB ChemMatrix resin; conditions: whole synthesis
# [8] = general procedure: Fmoc solid-phase peptide synthesis in flow; NovaPEG Rink Amide resin (0.41 mmol/g); conditions: whole synthesis, scale 21 µmol; run 2
# [9] = general procedure: Fmoc solid-phase peptide synthesis in flow; NovaPEG Rink Amide resin; conditions: whole synthesis
# [10] = general procedure: Fmoc solid-phase peptide synthesis in flow; Rink amide linker on HMPB ChemMatrix resin; conditions: whole synthesis
# [11] = general procedure: Fmoc solid-phase peptide synthesis in flow; NovaPEG Rink Amide resin (0.20 mmol/g); conditions: whole synthesis, scale 30 µmol
# [12] = general procedure: Fmoc solid-phase peptide synthesis in flow; HMPB + Rink double linker; conditions: whole synthesis
# [13] = Fmoc solid-phase peptide synthesis in flow; PEG resin; Rink amide, HMPB, photolinker or MeDbz linker; conditions: whole synthesis
# [14] = general procedure: Fmoc solid-phase peptide synthesis in flow; photolinker on NovaPEG Amino resin; conditions: whole synthesis, scale 124 µmol
# [15] = whole synthesis, AUC at 214 nm, run 2
# [16] = whole synthesis, UHPLC AUC at 214 nm, LCMS
# [17] = coupling step, UHPLC AUC at 214 nm, LCMS
# [18] = whole synthesis, 214 nm, scale 21 µmol
# [19] = whole synthesis, UHPLC AUC at 214 nm, LCMS, run 2
substance,measurement,setting,value
H2N-HAEGTFTSDVSSYLEGQAAKEFIAWLVKGRRRR-CONH2,crude LC-MS purity,"[1]; whole synthesis, 214 nm",62%
same,crude HPLC purity,"[1]; whole synthesis, AUC at 214 nm",60%
same,crude mass,[2]; scale 22 µmol,17 mg
H2N-FREAKAEGCD ITIILSRRRR RR-CONH2,crude HPLC purity,"[1]; whole synthesis, 214 nm",70% purity by UHPLC
same,crude LC-MS purity,"[1]; whole synthesis, 214 nm",62% purity by LCMS
same,crude HPLC purity,"[1]; whole synthesis, AUC at 214 nm",62% by UHPLC
same,crude mass,[3]; scale 8.9 µmol,0.70 mg
H2N-YLRIVQCRSV EGSCGFRRRR RR-CONH2,crude HPLC purity,"[1]; whole synthesis, 214 nm",73% purity by UHPLC
H2N-FREAKAEGCD ITIILSKKKK KK-CONH2,crude LC-MS purity,"[1]; whole synthesis, 214 nm",33%
same,crude HPLC purity,"[1]; whole synthesis, AUC at 214 nm, run 1",33%
same,crude HPLC purity,[1]; [15],21%
same,crude HPLC purity,[1]; [16],47%
same,crude LC-MS purity,[1]; [16],43%
same,crude mass,"[1]; whole synthesis, scale 41 µmol",4.0 mg
same,crude mass,[2]; scale 21 µmol,4.0 mg
H2N-MPLNVSFTNRNYDLDYDSVQPYFYCDEEENFYQQQQQSELQPPAPSEDIWKKFELLPTPPLSPSRRSGLCSPSYVAVTPFSLRGCNDGGGGSFSTADQLEMVTELLGGDMVNQSFICDPDDETFIKNIIIQDCMWSGFSAAAKRRRRRR -CONH2,crude HPLC purity,"[1]; coupling step, 214 nm",17%
same,final HPLC purity,"[1]; coupling step, 214 nm",96%
same,crude LC-MS purity,[1]; [17],39%
same,final HPLC purity,[1]; [17],96%
same,final LC-MS purity,[1]; [17],92%
same,step yield,"[1]; coupling step, isolated yield",35%
H2N-FREAKAEGCD ITIILS-CONH2,crude HPLC purity,[1]; [18],55%
same,crude LC-MS purity,[1]; [18],55%
same,crude HPLC purity,"[1]; whole synthesis, 214 nm, run 1",63%
same,crude LC-MS purity,"[1]; whole synthesis, 214 nm, run 1",62%
same,crude HPLC purity,"[1]; whole synthesis, 214 nm, run 2",44% purity
same,crude LC-MS purity,"[1]; whole synthesis, 214 nm, run 3",39% purity
same,crude LC-MS purity,"[1]; whole synthesis, 214 nm, run 4",46% purity
same,crude HPLC purity,[1]; [15],38% purity
same,crude LC-MS purity,"[1]; whole synthesis, UHPLC AUC at 214 nm, LCMS, run 1",37%
same,crude HPLC purity,[1]; [19],19%
same,crude LC-MS purity,[1]; [19],38%
same,crude HPLC purity,"[1]; whole synthesis, UHPLC AUC at 214 nm, LCMS, run 3",62%
same,crude HPLC purity,"[1]; whole synthesis, UHPLC AUC at 214 nm, LCMS, run 4",38% and 55%
same,crude mass,"[1]; whole synthesis, scale 21 µmol, run 1",3.6 mg
same,crude LC-MS purity,"[4]; 214 nm, run 6",38% purity by LCMS
same,crude mass,[4]; scale 40 µmol,6.8 mg
same,crude LC-MS purity,[5],37% purity by LCMS
same,crude HPLC purity,[6],77%
same,crude LC-MS purity,"[7]; 214 nm, run 5",27% purity by LCMS
same,crude HPLC purity,"[7]; AUC at 214 nm, run 1",19% purity by UHPLC
same,crude mass,[7]; scale 49 µmol,1.4 mg
same,crude mass,[8],3.8 mg
same,crude mass,[9]; scale 20 µmol,3.7 mg
same,crude LC-MS purity,"[10]; 214 nm, run 2",2% purity by LCMS
same,crude mass,[10]; scale 12 µmol,1.4 mg
same,crude HPLC purity,[11]; 214 nm,77%
same,crude LC-MS purity,[11]; 214 nm,79%
same,crude mass,[11],4.5 mg
same,crude mass,[2]; scale 22.5 µmol,3.0 mg
same,crude mass,[2]; scale 48 µmol,1.6 mg
same,difficulty met,[12],drastically increased aggregation in Barstar[75–90] and very low peptide purity
same,crude LC-MS purity,"[3]; 214 nm, run 7",8% purity by LCMS
H2N-HAEGTFTSDVSSYLEGQAAKEFIAWLVKGRRRRRRR-CONH2,crude HPLC purity,"[1]; whole synthesis, 214 nm",84% purity by UHPLC
H2N- WFFTLISTIM RRRRRR-CONH2,crude HPLC purity,"[1]; whole synthesis, 214 nm",77% purity by UHPLC
H2N-KGAIIGLMVG GVVIARRRRR R-CONH2,crude LC-MS purity,"[1]; whole synthesis, 214 nm",62% purity
same,crude HPLC purity,"[1]; whole synthesis, AUC at 214 nm",48% purity
same,crude mass,[9]; scale 21 µmol,4.4 mg
H2N-MPLNVSFTNRNYDLDYDSVQPYFYCDEEENFYQQQQQSELQPPAPSEDIWKKFELLPTPPLSPSRRSGLCSPSYVAVTPFSLRG-MeNbz -RRRRRR-CONH2,crude HPLC purity,[13]; 214 nm,39%
same,crude LC-MS purity,[13]; 214 nm,40%
same,final HPLC purity,[13]; 214 nm,>95%
same,final LC-MS purity,[13]; 214 nm,95%
same,isolated yield,[13]; overall,0.5%
H2N-RRRRRRHAEGTFTSDVSSYLEGQAAKEFIAWLVKGR-CONH2,crude LC-MS purity,"[1]; whole synthesis, 214 nm",67%
same,crude HPLC purity,"[1]; whole synthesis, AUC at 214 nm",65%
same,crude mass,[2]; scale 21 µmol,18 mg
H2N-HAEGTFTSDVSSYLEGQAAKEFIAWLVKGRRRRRRRRRR-CONH2,crude LC-MS purity,"[1]; whole synthesis, 214 nm",85%
same,crude HPLC purity,"[1]; whole synthesis, AUC at 214 nm",66%
same,crude mass,[2]; scale 20 µmol,6.7 mg
H2N-NDGGGGSFSTADQLEMVTELLGGDMVNQSFICDPDDETFIKNIIIQDCMWSGFSAAAKRRRRRR-CONH2,crude LC-MS purity,"[1]; whole synthesis, 214 nm",39% purity
same,crude HPLC purity,"[1]; whole synthesis, AUC at 214 nm",27% purity
same,crude mass,[9]; scale 30 µmol,14 mg
H2N-TTCCPSIVARSNFNVCRLPGTPEALCATYTGCIIIPGATCPGDYAN-MeNbz- RRRRRR-CONH2,crude HPLC purity,"[1]; whole synthesis, 214 nm",approx. 19%
same,crude mass,"[1]; whole synthesis, scale 31 µmol",3.3 mg
H2N-YLRIVQCRSV EGSCGFPPPP PP-CONH2,crude HPLC purity,"[1]; whole synthesis, 214 nm",28% purity by UHPLC
same,crude LC-MS purity,"[1]; whole synthesis, 214 nm",33% purity by LCMS
same,crude mass,[2]; scale 21 µmol,6.6 mg
H2N-TTCCPSIVARSNFNVCRLPGTPEALCATYTGCIIIPGATCPGDYAN-CONH2,crude HPLC purity,"[1]; whole synthesis, 214 nm",approx. 7%
same,crude mass,"[1]; whole synthesis, scale 31 µmol",7.6 mg
H2N-FREAKAEGCD ITIILSPPPP PP-CONH2,crude HPLC purity,"[1]; whole synthesis, 214 nm",58% purity by UHPLC
same,crude LC-MS purity,"[1]; whole synthesis, 214 nm",56% purity by LCMS
same,crude mass,[2]; scale 21 µmol,3.0 mg
H2N-FREAKAEGCD ITIILSPPPP EK-CONH2,difficulty met,[1]; whole synthesis,"both NBDY sequences increased aggregation, leading to decreased crude purity"
same,crude LC-MS purity,"[1]; whole synthesis, 214 nm",46%
same,crude HPLC purity,[1]; [16],50%
same,crude mass,"[1]; whole synthesis, scale 21 µmol",4.0 mg
H2N-YLRIVQCRSV EGSCGFQQQQ QQ-CONH2,crude HPLC purity,"[1]; whole synthesis, 214 nm",77% purity by UHPLC
same,crude LC-MS purity,"[1]; whole synthesis, 214 nm",69% purity by LCMS
same,crude mass,[2]; scale 21 µmol,5.9 mg
H2N-KGAIIGLMVG GVVIA-MeNbz -RRRRRR-CONH2,crude HPLC purity,"[1]; whole synthesis, 214 nm",73%
same,crude LC-MS purity,"[1]; whole synthesis, 214 nm",70%
same,final HPLC purity,"[1]; whole synthesis, 214 nm",>95%
same,final LC-MS purity,"[1]; whole synthesis, 214 nm",93%
same,isolated yield,[1]; whole synthesis,7%
same,crude mass,"[1]; whole synthesis, scale 10 µmol",5.9 mg
RRRRRRRRR,crude LC-MS purity,"[1]; whole synthesis, 214 nm",52% purity
same,crude mass,[14],8.6 mg
H2N- KGAIIGLMVG GVVIA-CONH2,crude LC-MS purity,"[1]; whole synthesis, 214 nm",43% purity
same,crude HPLC purity,"[1]; whole synthesis, AUC at 214 nm",33% purity
same,crude mass,[9]; scale 20 µmol,4.7 mg
H2N-FREAKAEGCD ITIILS-MeNbz -RRRRRR-CONH2,crude HPLC purity,"[1]; whole synthesis, 214 nm",58%
same,crude LC-MS purity,"[1]; whole synthesis, 214 nm",50%
same,crude mass,"[1]; whole synthesis, scale 10 µmol",1.5 mg
Aβ42[27–42]-MeNbz-Arg6,crude HPLC purity,[1]; [16],73%
same,final HPLC purity,[1]; [16],96%
same,isolated yield,[1]; whole synthesis,7%
H2N-FIKNIIIQDC MWSGFSAAAK RRRRRR-CONH2,crude HPLC purity,"[1]; whole synthesis, 214 nm",76% purity by UHPLC
